The source of these data is the supplement of paper PMC10727501.

Structures can show the parent of a compound that is named as a salt. The list shows a part of the results. This data set is noisy: repeats of one test often differ as much as different tests do.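 Researchers measured free-swimming zebrafish larvae's O-bend response probability to dark flashes (naive: first five; training: remaining flashes of four 60-flash blocks; test: later 60-flash block) and OMR turning toward alternating leftward/rightward LED motion. Six treated larvae were compared to sixty 0.1% DMSO controls, with |SSMD|≥2 marking a hit.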

The subject of the first assay is Danio rerio larvae (5 dpf, TLF). The assay is described as follows: Prob-Naive (SSMD vs DMSO vehicle); higher = higher than vehicle (e.g. higher dark-flash O-bend response probability, or better optomotor performance). Conditions: 10 µM; pre-incubation: 30-90 min.
With `N#CC(=Cc1ccc(-c2cc(Cl)ccc2Cl)o1)C(=O)Nc1cccc2ncccc12`, the Prob-Naive is -0.0813.
Turning to `Cn1c(=O)c2c(ncn2CC(O)CO)n(C)c1=O` (configuration not stated) [Dyphylline], the Prob-Naive was -0.258.
Same read-out and setting: the same measure for `CN1CCN(c2cc3c(cc2F)c(=O)c(C(=O)O)cn3-c2ccc(F)cc2)CC1` [Difloxacin HCl]: 0.444; for `N[C@@H](CSCCCO)C(=O)O` [Fudosteine]: 0.13; for `COc1cc(Nc2ncc3c(n2)-c2ccc(Cl)cc2C(c2c(F)cccc2OC)=NC3)ccc1C(=O)O` [Alisertib (MLN8237)]: -2.88.
As for `CCOC(=O)[C@H](CCc1ccccc1)N[C@@H](C)C(=O)N1CCC[C@H]1C(=O)O.O=C(O)/C=C\C(=O)O` [Enalapril Maleate], the Prob-Naive is -0.0555.
Still for that read-out and setting: the same measure for `CC(C)(C)c1ccc(-c2nc3ccccc3[nH]2)cc1`: 0.448.
Compound `O=c1c(O)c(-c2ccc(O)c(O)c2)oc2cc(O)cc(O)c12` [Quercetin] showed a Prob-Naive of -0.476.
As to `COc1cc2ncnc(Nc3cccc(Br)c3)c2cc1OC.Cl`, the Prob-Naive is -0.0443.
Take `C[C@H](NC(=O)[C@@H](O)c1cc(F)cc(F)c1)C(=O)N[C@@H]1C(=O)N(C)c2ccccc2-c2ccccc21`: the Prob-Naive was -0.205.
Still for that read-out and setting: the same measure for `CCCCCOC(=O)Nc1nc(=O)n([C@@H]2O[C@H](C)[C@@H](O)[C@@H]2O)cc1F` [Capecitabine]: -0.606.
Turning to `Nc1ccn([C@@H]2O[C@H](CO)[C@@H](O)[C@@H]2O)c(=O)n1` [Cytidine], the Prob-Naive is 0.375.
In turn, `Cc1ccc(C(=O)N(CCCN)[C@@H](c2oc3cc(Cl)ccc3c(=O)c2Cc2ccccc2)C(C)C)cc1.Cl` showed a Prob-Naive of 0.459.
Compound `CCOC(=O)c1ccc(OC(=O)CCCCCNC(=N)N)cc1.CS(=O)(=O)O` [Gabexate Mesylate] returned a Prob-Naive of 0.0404.
`CC[C@H](/C=C/[C@@H](C)[C@@H]1CC[C@H]2[C@@H]3CC=C4C[C@@H](O)CC[C@]4(C)[C@@H]3CC[C@@]21C)C(C)C` [Stigmasterol]: the Prob-Naive is -0.365.
As to `Nc1nnc(-c2cccc(Cl)c2Cl)c(N)n1` [Lamotrigine], the Prob-Naive is 0.42.
The same measure, in the same setting: in the case of `Cc1ccccc1C(OCCN(C)C)c1ccccc1.O=C(O)CC(O)(CC(=O)O)C(=O)O` (configuration not stated) [Orphenadrine Citrate] it was 0.028; in that of `Cc1nn(-c2ccccc2)c(C)c1/C=N/N1CCN(Cc2ccccc2)CC1`, -0.387; in that of `CN[C@H](CC(C)C)C(=O)N[C@H]1C(=O)N[C@@H](CC(N)=O)C(=O)N[C@H]2C(=O)N[C@H]3C(=O)N[C@@H](C(=O)N[C@H](C(=O)O)c4cc(O)cc(O)c4-c4cc3ccc4O)[C@H](O)c3ccc(c(Cl)c3)Oc3cc2cc(c3O[C@H]2O[C@H](CO)[C@@H](O)[C@H](O)[C@H]2O[C@H]2C[C@@](C)(N)[C@H](O)[C@H](C)O2)Oc2ccc(cc2Cl)[C@H]1O.Cl` [Vancomycin HCl (Vancocin)], 0.402.
As to `CCCCc1nc2cc(/C=C/C(=O)NO)ccc2n1CCN(CC)CC` [Pracinostat (SB939)], the Prob-Naive is -0.0813.
For `Cl.Cl.Fc1cc(-c2cccc3ncc(-c4cnn(C5CCNCC5)c4)nc23)cc(F)c1CN1CCOCC1`, the Prob-Naive came out at 0.102.
As for `CC[C@@H]([C@H](C)O)n1ncn(-c2ccc(N3CCN(c4ccc(OC[C@@H]5CO[C@@](Cn6cncn6)(c6ccc(F)cc6F)C5)cc4)CC3)cc2)c1=O` [Posaconazole], the Prob-Naive came to 0.573.

Another assay shares this test system. The experiment in a line: Prob-Train (SSMD vs DMSO vehicle); higher = higher than vehicle (e.g. higher dark-flash O-bend response probability, or better optomotor performance). Conditions: 10 µM; pre-incubation: 30-90 min.
The compound `COc1cc(OC2CCN(C)CC2)ccc1Nc1ncc2c(n1)n(C1CCCC1)c(=O)n2C` came in with a Prob-Train of 0.0462.
On the same count and under the same terms, in the case of `CC(C)(C)N.CCCC(N[C@@H](C)C(=O)N1[C@@H](C(=O)O)C[C@@H]2CCCC[C@@H]21)C(=O)OCC` (some centres not stated) [Perindopril Erbumine (Aceon)] it was -0.499.
In the case of `CCOC(=O)C1OC1C(=O)NC(CC(C)C)C(=O)NCCC(C)C` (configuration not stated) [Aloxistatin], the Prob-Train amounted to 0.025.
Turning to `NCCc1c[nH]cn1.O=P(=O)OO.O=P(=O)OO.[HH].[HH]` [Histamine Phosphate], the Prob-Train was 0.378.
Still for that read-out and setting: in the case of `NC(=O)c1cnccn1` [Pyrazinamide] it was -0.255; in that of `Cc1c(NC(=O)OC[C@@H]2COCCN2)cn2ncnc(Nc3ccc4c(cnn4Cc4cccc(F)c4)c3)c12.Cl`, 0.237.
As for `CCCCCCCCCCCCCCCCCCCCCCO` [Docosanol (Abreva)], the Prob-Train stood at 0.0335.
`Cc1cc(/C=C/C#N)cc(C)c1Nc1ccnc(Nc2ccc(C#N)cc2)n1` [Rilpivirine] returned a Prob-Train of -1.58.
On the same count and under the same terms, the same measure for `Cn1cnc([N+](=O)[O-])c1Sc1ncnc2nc[nH]c12` [Azathioprine]: -0.172.
Still for that read-out and setting: the same measure for `Nc1nccs1` [Aminothiazole]: -0.118; for `COc1ccc2[nH]c(S(=O)Cc3ncc(C)c(OC)c3C)nc2c1` (configuration not stated) [Omeprazole]: 0.0475; for `Oc1cccc(-c2nc(N3CCOCC3)c3oc4ncccc4c3n2)c1`: -0.204.
For the compound `CO[C@H]1C[C@@H]2CC[C@@H](C)[C@@](O)(O2)C(=O)C(=O)N2CCCC[C@H]2C(=O)O[C@H]([C@H](C)C[C@@H]2CC[C@@H](OCCO)[C@H](OC)C2)CC(=O)[C@H](C)/C=C(\C)[C@@H](O)[C@@H](OC)C(=O)[C@H](C)C[C@H](C)/C=C/C=C/C=C/1C` [Everolimus (RAD001)], the Prob-Train was determined as 0.299.
Consider `COC(=O)N1CCN(Cc2cccc(NC(=O)Nc3ccc(C)nc3)c2F)CC1`, for which the Prob-Train stood at 0.482.
On the same count and under the same terms, in the case of `COc1cccc(N(C)C(=S)Oc2ccc3c(c2)CCCC3)n1` [Liranaftate] it was -2.65; in that of `CN1C[C@@H]2c3ccccc3Oc3ccc(Cl)cc3[C@H]2C1.O=C(O)/C=C\C(=O)O` [Asenapine], -1.46; in that of `COc1cccc2cc(-c3nc([C@H]4CC[C@H](C(=O)O)CC4)n4ncnc(N)c34)[nH]c12`, 0.126.
Same read-out and setting: in the case of `CCN(CC)C(=O)[C@]1(c2ccccc2)C[C@@H]1CN.Cl` [Milnacipran HCl] it was -0.352; in that of `N#CC(=Cc1ccc(-c2cc(Cl)ccc2Cl)o1)C(=O)Nc1cccc2ncccc12`, -0.214.
As for `Cn1c(=O)c2c(ncn2CC(O)CO)n(C)c1=O` (configuration not stated) [Dyphylline], the Prob-Train is -0.0523.
Still for that read-out and setting: in the case of `CN1CCN(c2cc3c(cc2F)c(=O)c(C(=O)O)cn3-c2ccc(F)cc2)CC1` [Difloxacin HCl] it was 0.272; in that of `N[C@@H](CSCCCO)C(=O)O` [Fudosteine], -0.636.
On to `COc1cc(Nc2ncc3c(n2)-c2ccc(Cl)cc2C(c2c(F)cccc2OC)=NC3)ccc1C(=O)O` [Alisertib (MLN8237)], for which the Prob-Train was -2.78.
As to `CCOC(=O)[C@H](CCc1ccccc1)N[C@@H](C)C(=O)N1CCC[C@H]1C(=O)O.O=C(O)/C=C\C(=O)O` [Enalapril Maleate], the Prob-Train turned out to be 0.0685.
The compound `CC(C)(C)c1ccc(-c2nc3ccccc3[nH]2)cc1` yielded a Prob-Train of 1.06.
Still for that read-out and setting: the same measure for `O=c1c(O)c(-c2ccc(O)c(O)c2)oc2cc(O)cc(O)c12` [Quercetin]: -0.0164; for `COc1cc2ncnc(Nc3cccc(Br)c3)c2cc1OC.Cl`: -0.203; for `C[C@H](NC(=O)[C@@H](O)c1cc(F)cc(F)c1)C(=O)N[C@@H]1C(=O)N(C)c2ccccc2-c2ccccc21`: 0.0776.
For the compound `CCCCCOC(=O)Nc1nc(=O)n([C@@H]2O[C@H](C)[C@@H](O)[C@@H]2O)cc1F` [Capecitabine], the Prob-Train was -0.433.
`Nc1ccn([C@@H]2O[C@H](CO)[C@@H](O)[C@@H]2O)c(=O)n1` [Cytidine]: the Prob-Train came to 0.295.
As for `Cc1ccc(C(=O)N(CCCN)[C@@H](c2oc3cc(Cl)ccc3c(=O)c2Cc2ccccc2)C(C)C)cc1.Cl`, the Prob-Train is -0.188.
For `CCOC(=O)c1ccc(OC(=O)CCCCCNC(=N)N)cc1.CS(=O)(=O)O` [Gabexate Mesylate], the Prob-Train is 0.254.
Same read-out and setting: the same measure for `CC[C@H](/C=C/[C@@H](C)[C@@H]1CC[C@H]2[C@@H]3CC=C4C[C@@H](O)CC[C@]4(C)[C@@H]3CC[C@@]21C)C(C)C` [Stigmasterol]: 0.673; for `Nc1nnc(-c2cccc(Cl)c2Cl)c(N)n1` [Lamotrigine]: -0.25.
`Cc1ccccc1C(OCCN(C)C)c1ccccc1.O=C(O)CC(O)(CC(=O)O)C(=O)O` (configuration not stated) [Orphenadrine Citrate] showed a Prob-Train of -0.459.
Still for that read-out and setting: the same measure for `Cc1nn(-c2ccccc2)c(C)c1/C=N/N1CCN(Cc2ccccc2)CC1`: -1.36; for `CN[C@H](CC(C)C)C(=O)N[C@H]1C(=O)N[C@@H](CC(N)=O)C(=O)N[C@H]2C(=O)N[C@H]3C(=O)N[C@@H](C(=O)N[C@H](C(=O)O)c4cc(O)cc(O)c4-c4cc3ccc4O)[C@H](O)c3ccc(c(Cl)c3)Oc3cc2cc(c3O[C@H]2O[C@H](CO)[C@@H](O)[C@H](O)[C@H]2O[C@H]2C[C@@](C)(N)[C@H](O)[C@H](C)O2)Oc2ccc(cc2Cl)[C@H]1O.Cl` [Vancomycin HCl (Vancocin)]: -0.27.
Compound `CCCCc1nc2cc(/C=C/C(=O)NO)ccc2n1CCN(CC)CC` [Pracinostat (SB939)] returned a Prob-Train of -0.0462.
Take `Cl.Cl.Fc1cc(-c2cccc3ncc(-c4cnn(C5CCNCC5)c4)nc23)cc(F)c1CN1CCOCC1`: the Prob-Train was -0.0502.
Consider `CC[C@@H]([C@H](C)O)n1ncn(-c2ccc(N3CCN(c4ccc(OC[C@@H]5CO[C@@](Cn6cncn6)(c6ccc(F)cc6F)C5)cc4)CC3)cc2)c1=O` [Posaconazole], for which the Prob-Train is -0.539.
